Laboratory results: patent US12458660B2, “Methods of attenuating an immune response by inhibition of BFL1” (CHILDREN'S HOSPITAL MEDICAL CENTER, priority 2018, dated 2025)
The name of at least one read-out is uncertain.

Target: T1, BCL2A1 (A1) - NOXA binding (Mus musculus, UniProt Q07440, C113S/P104K)
T1 construct: A1 residues 1-152 (P104K, C113S) were expressed in the BL21 strain of Escherichia coli; hexa-His-MBP (cleaved yes); made in house; host or cells: Escherichia coli BL21
T1 sequence (Q07440 1-152 P104K/C113S): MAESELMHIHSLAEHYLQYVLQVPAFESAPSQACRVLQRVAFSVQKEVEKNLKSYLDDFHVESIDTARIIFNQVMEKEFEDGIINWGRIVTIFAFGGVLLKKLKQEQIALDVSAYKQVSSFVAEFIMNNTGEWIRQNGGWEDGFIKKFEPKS
Assay: Competition fluorescence polarization assay, displacement of FITC-labeled mNOXA peptide from A1
Details: tested together with NSC-97318
Experimental: Representative compounds were additionally tested for inhibition of BH3 binding through competition-based fluorescence polarization (FP) assays. These assays were carried out using fluorescently labeled NOXA peptide which binds within the BH3-binding groove. The FP assay measures the tumbling rate of the labeled NOXA peptide. When NOXA is bound to A1, its rate of tumbling is low (and FP is high), whereas an effective inhibitor compound will displace NOXA, causing a fast rate of tumbling (and low FP value). […]
These compounds and any that were three standard deviations or more above the thermal shift controls in the DSF assays, along with those that were initially derived from early compounds with reasonable IC50 values, were tested in a dose-response experiment. To this end, 30 putative P2 inhibitors and 44 putative P4 inhibitors had their IC50 values determined. […]
Compounds were additionally tested for specificity of binding by displacement of FITC-labeled mouse NOXA (mNoxa; Peptide 2.0) peptide via fluorescence polarization assay (FP). FP assays were performed in two steps: single-point high-concentration compounds and dose response of fluorescence polarization hits. […] After addition of 375 nM labeled mNOXA, 96-well plates were incubated overnight at 20° C. in the dark to achieve equilibrium before fluorescence polarization was measured with a Biotek Synergy H2. […]

| SMILES | combined effect on IC50 (isobologram) |
| --- | --- |
| Cc1cc(/N=N/c2ccc(/N=N/c3c(O)c(S(=O)(=O)O)cc4cc(S(=O)(=O)O)ccc34)cc2C)ccc1/N=N/c1ccc2cc(S(=O)(=O)O)cc(S(=O)(=O)O)c2c1 [Compound 1.004] | additive effect |
| Cc1ccc(NC(=O)c2cc3ccccc3c(/N=N/c3cc(S(=O)(=O)O)ccc3O)c2O)c(C)c1 [Compound 1.001] | additive effect |
